# Measurements: US11235001B2, “RUNX inhibitor” (KYOTO UNIVERSITY, priority 2016, dated 2022)
# Some of these results come from one statement about several compounds together.
# How the values were obtained:
# [1] = system: cancer cells of diverse origins; experiment: Inhibition effects on various cancer cells (IC50); type: cell-based, human; conditions: many of the cancer cells expressing wild type p53 and a part of the p53-mutated cancer cells; 48 hours; read-out: IC50 values (cell growth)
# [2] = system: MV4-11 cells; experiment: Xenograft AML mouse model (MV4-11); type: in vivo; conditions: NOG mice with MV4-11, 320 μg/kg IV twice a week from day 7
SMILES,IC50 [1],Lengthening of overall survival periods [2]
CN(C)CCCNC(=O)c1cc(NC(=O)c2cc(NC(=O)c3cc(NC(=O)c4cc(NC(=O)CCCNC(=O)c5nc(NC(=O)c6nc(NC(=O)c7cc(NC(=O)c8nc(NC(=O)CCNC(=O)CCCc9ccc(N(CCCl)CCCl)cc9)cn8C)cn7C)cn6C)cn5C)cn4C)cn3C)cn2C)cn1C [Chb-M′],≤ 5 µM,≥ 2 times
CN(C)CCCNC(=O)c1nc(NC(=O)c2nc(NC(=O)c3cc(NC(=O)c4nc(NC(=O)CCCNC(=O)c5cc(NC(=O)c6nc(NC(=O)c7cc(NC(=O)c8cc(NC(=O)CCNC(=O)CCCc9ccc(N(CCCl)CCCl)cc9)cn8C)cn7C)cn6C)cn5C)cn4C)cn3C)cn2C)cn1C [Chb-50],≤ 5 µM,≥ 2 times
